The results in this text go back to publication PMC6031384.

These are yes or no findings as the source states them, for the method shown. Binding seen in cells or lysates may run through a third protein. Here binding means that the protein was enriched with, or labelled near, the bait; the list need not be complete.

For the assay, the target named is VPS26 (human (endogenous in HeLa)). Nature of the assay: affinity purification with mass spectrometry; SILAC; three HeLa cell lines, TBC1D5 knockdown in the light-labelled cells; cells treated with the crosslinker DSP (0.5 mM, 20 min, room temperature); lysis in Tris-buffered saline with 0.5% Triton X-100; VPS26 recovered by IP; LC-MSMS.

B1: KIAA1033 (protein, UniProt Q2M389 1-1173)
chain: MAVETLSPDWEFDRVDDGSQKIHAEVQLKNYGKFLEEYTSQLRRIEDALDDSIGDVWDFNLDPIALKLLPYEQSSLLELIKTENKVLNKVITVYAALCCEIKKLKYEAETKFYNGLLFYGEGATDASMVEGDCQIQMGRFISFLQELSCFVTRCYEVVMNVVHQLAALYISNKIAPKIIETTGVHFQTMYEHLGELLTVLLTLDEIIDNHITLKDHWTMYKRLLKSVHHNPSKFGIQEEKLKPFEKFLLKLEGQLLDGMIFQACIEQQFDSLNGGVSVSKNSTFAEEFAHSIRSIFANVEAKLGEPSEIDQRDKYVGICGLFVLHFQIFRTIDKKFYKSLLDICKKVPAITLTANIIWFPDNFLIQKIPAAAKLLDRKSLQAIKIHRDTFLQQKAQSLTKDVQSYYVFVSSWMMKMESILSKEQRMDKFAEDLTNRCNVFIQGFLYAYSISTIIKTTMNLYMSMQKPMTKTSVKALCRLVELLKAIEHMFYRRSMVVADSVSHITQHLQHQALHSISVAKKRVISDKKYSEQRLDVLSALVLAENTLNGPSTKQRRLIVSLALSVGTQMKTFKDEELFPLQVVMKKLDLISELRERVQTQCDCCFLYWHRAVFPIYLDDVYENAVDAARLHYMFSALRDCVPAMMHARHLESYEILLDCYDKEIMEILNEHLLDKLCKEIEKDLRLSVHTHLKLDDRNPFKVGMKDLALFFSLNPIRFFNRFIDIRAYVTHYLDKTFYNLTTVALHDWATYSEMRNLATQRYGLVMTEAHLPSQTLEQGLDVLEIMRNIHIFVSRYLYNLNNQIFIERTSNNKHLNTINIRHIANSIRTHGTGIMNTTVNFTYQFLKKKFYIFSQFMYDEHIKSRLIKDIRFFREIKDQNDHKYPFDRAEKFNRGIRKLGVTPEGQSYLDQFRQLISQIGNAMGYVRMIRSGGLHCSSNAIRFVPDLEDIVNFEELVKEEGLAEETLKAARHLDSVLSDHTRNSAEGTEYFKMLVDVFAPEFRRPKNIHLRNFYIIVPPLTLNFVEHSISCKEKLNKKNKIGAAFTDDGFAMGVAYILKLLDQYREFDSLHWFQSVREKYLKEIRAVAKQQNVQSASQDEKLLQTMNLTQKRLDVYLQEFELLYFSLSSARIFFRADKTAAEENQEKKEKEEETKTSNGDLSDSTVSADPVVK
Regarding B1, the binding entry is reported as “binds”.
